The whole screen tested about 31,000 sequences, of which about 1,400 (4.5%) were called active.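 How the source made its calls: active means median seed-adjusted z-score above 1 or below -1; inactive means the rest.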 This is one part of the list.

The test in a line: Novel Modifiers of Survival Motor Neuron (SMN) Protein: Gene Identification via Genome-wide siRNA Screen.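 Further: luminescence tracks full-length SMN protein made from the SMN2 reporter.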 The settings on record: HEK293T SMN2-luciferase reporter, siRNA knockdown, 72 h; actives lie on both sides. The gist of the method: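 HEK293T cells stably expressing an SMN2 splicing/cDNA-luciferase reporter were reverse-transfected with a druggable-genome siRNA library and read by luminescence at 72 hours; hits defined by MAD score above 1.0 or below -1.0.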
Turning to GCUCGGCAUCUGUUGGUUATT against SIRT3, the median seed-adjusted z-score was inactive: -0.341. For CAACUAUCAUGGACAUUCATT against FXYD5, the median seed-adjusted z-score was inactive: -0.0885. As for GGGAUGUAAUAACAGCAUUTT against GDE1, the median seed-adjusted z-score is inactive: -0.256.

As for CCAACAUCGUGGAGAAGUUTT against TRIM8, the median seed-adjusted z-score was inactive: -0.296.

For GCAUUGGGAUAGAUAAAUUTT against ADK, the median seed-adjusted z-score was inactive: 0.198.

For GAAUCGUCAAUGUCAAAAUTT against ADAM12, the median seed-adjusted z-score is inactive: -0.343. With CAGUGUUCCUUUGACCUGATT against ZNF384, the median seed-adjusted z-score was inactive: -0.132. GAGUUAGCACAAUAGGUUATT against SOX5: the median seed-adjusted z-score is inactive: 0.123. For the sequence GGCAAGCAGUUCAACCACATT against ZBTB12, the median seed-adjusted z-score was inactive: 0.0993. In the case of GCUUAUCUGAUACAAGGAATT against ZFP37, the median seed-adjusted z-score is inactive: -0.305. As to GAGUUCUACUUGUCCAAUUTT against ZDHHC20, the median seed-adjusted z-score was inactive: -0.936. Turning to GAGUAGCUCCAAUUCCGAUTT against MYT1, the median seed-adjusted z-score was inactive: -0.292. For CCAUGAUCCUGGAGGAUGATT against ZSCAN2, the median seed-adjusted z-score was inactive: -0.428. Under CUGCUUGGGUGAUAGAUAATT against RTN4IP1 stands inactive: -0.00582; under GAAGAAUUCGGGUGGAUUATT against TRA2A, inactive: -0.187. Turning to CUUCUGAUCUCAUUCAACATT against ZNF571, the median seed-adjusted z-score was inactive: 0.175.

On to GCAUUGUGGAGAAUGAGUATT against FGFR1, for which the median seed-adjusted z-score is inactive: -0.562.

Take CCCUUUCAAUAGACAGUGUTT against PRDX6: the median seed-adjusted z-score was inactive: -0.0302. For the sequence GCAUGUGGAAUUACAUGUATT against GRIK4, the median seed-adjusted z-score is inactive: 0.249. With GGAUACACCUUAGCAACCATT against ZNF642, the median seed-adjusted z-score is inactive: 0.169. Regarding GGGUGAUAUUGUUCGAAUATT against ATP11B, the median seed-adjusted z-score is inactive: 0.0036.

CAUCGUUCGUUACUAUGAUTT against NEK2: the median seed-adjusted z-score is inactive: -0.276. For the sequence GAGUUAAUAUUGCCCAUUATT against NRXN2, the median seed-adjusted z-score is inactive: -0.485. As for GACUUACCAGAGGUGCAAATT against ZNF638, the median seed-adjusted z-score was inactive: 0.63. As to CCAGCAUCCGGUACUUUGATT against CORO1B, the median seed-adjusted z-score was inactive: 0.405. CCACCAAGAUGUUAUCUGATT against KCNJ3: the median seed-adjusted z-score was inactive: -0.0229.

For ACAUCGUAGUGGGACGAAUTT against EXOSC2, the median seed-adjusted z-score was inactive: -0.0798. Turning to CCUUGUCUCUUCCACCUGATT against PHC1, the median seed-adjusted z-score is inactive: -0.615. As to CCCACGUCGUGAUCUACGATT against MPST, the median seed-adjusted z-score is inactive: -0.181. Consider CCAUGAAUCUCUAAAGGGATT against CADM3, for which the median seed-adjusted z-score is inactive: 0. Turning to GGAGCUCCAAGACUCUAGATT against PPARGC1A, the median seed-adjusted z-score was inactive: -0.0953.

For GCCUUUUCAAUCACAUAUATT against ATP6V0A4, the median seed-adjusted z-score was inactive: -0.141. Turning to CAGAAGUCCUUAUACUUCATT against TIAL1, the median seed-adjusted z-score was inactive: -0.985. For CACCUUUUCUGGAUAGAGATT against DSC1, the median seed-adjusted z-score was inactive: -0.151.

Take GGAAAAUUUACAGAAGUAATT against ZNF610: the median seed-adjusted z-score was inactive: 0.432. On to GAUGCCUUCUAAGAAAUUUTT against SPIRE2, for which the median seed-adjusted z-score was inactive: 0.0604. Then CAGCUGAAAUCUCGAAAUATT against ARL5B, with inactive: -0.506. Turning to CAGAUAUCCUUUGCUUUAATT against VN1R5, the median seed-adjusted z-score was inactive: 0.177. On to CCAGUGAACGGGAAUAGUATT against FOXC1, for which the median seed-adjusted z-score is inactive: -0.447. Then UAAGGACCGUGACUACAUUTT against DFNB31, with inactive: -0.233; and GUACCAGUCCAGUCCAUGATT against CDKN2D, with inactive: -0.455.

Regarding CACCCACACCGGAUUGAAATT against BAG5, the median seed-adjusted z-score is inactive: -0.0153.

As to CUCAUGUACUUGUACCUGUTT against NDUFB6, the median seed-adjusted z-score is inactive: -0.357. In the case of CGACCACAUUCAUAUGUGATT against ABHD5, the median seed-adjusted z-score was inactive: 0.131. Then GGAUGAUGCACAAAUCUUATT against SERPINB7, with inactive: 0.584. With UCAUGUGCCUGGAAAUUAATT against AIRE, the median seed-adjusted z-score is inactive: 0.308. As to GCUGGAAAAGGUUAACGAATT against PKNOX1, the median seed-adjusted z-score was inactive: 0.68.

Consider GCACUGGAAGAGGCAAGUATT against ENPEP, for which the median seed-adjusted z-score was inactive: 0.666. CCUUAUUCGACAUGAGAUATT against ZNF257: the median seed-adjusted z-score was inactive: 0.306. Under CACUCAACUCCAUCGAAUATT against CDC42BPB stands inactive: -0.556.

On to CGCUGUGCAUGGACUACAATT against FZD8, for which the median seed-adjusted z-score is inactive: -0.177. For the sequence CCAGUGGGUGUAUAACAUUTT against DCPS, the median seed-adjusted z-score was inactive: 0.669.

As for GGAAGGCUAAAGACUUAUATT against ZMPSTE24, the median seed-adjusted z-score is inactive: -0.633. Consider GGAUGACAAGGAACACUCATT against CFB, for which the median seed-adjusted z-score was inactive: 0.132.

With CGAGACUUCUGACAUCUAUTT against DTX3, the median seed-adjusted z-score is inactive: 0.227.

In the case of GCAUUUAGGUACCAGCUCATT against SLC39A2, the median seed-adjusted z-score is inactive: 0.0602. Then GGUACUUUGUGAGCGAGGATT against RPS6KL1, with inactive: 0.0816; and CCACAUCUCCUAGCAGGUATT against RBM7, with inactive: 0.

For the sequence GUAUAUGGGCUGUUAUAAATT against IL1RAP, the median seed-adjusted z-score is inactive: -0.23.

For GGACUUGCUGGAAAGCACATT against NCALD, the median seed-adjusted z-score was inactive: 0. In the case of AGUAUGAGGUGUCCCAUGATT against CPNE7, the median seed-adjusted z-score was inactive: 0.262. With CGAUGUAUGACGAGGAAAATT against BTNL3, the median seed-adjusted z-score is inactive: 0.

As for CAAGGACACUUCAUCGUGATT against AVPR2, the median seed-adjusted z-score is inactive: -0.262. In the case of GGGUGACUCUCUGACUACATT against PLB1, the median seed-adjusted z-score is inactive: -0.118. Consider GCAGAGCAGUUUGACGAAUTT against FH, for which the median seed-adjusted z-score is inactive: 0.182. Turning to CGAAUUCAGGUCAACAAUATT against TRERF1, the median seed-adjusted z-score was inactive: -0.0952. Then CGGAGAAGGUGUCAAAGCATT against GJA8, with inactive: 0; and CUCUGGUACCGAUACCUGATT against XAB2, with inactive: 0.0628.

Values taken from PubChem BioAssay AID1347426 (Functional Genomics Laboratory (NCATS/FGL), 2020).
